According to the supplement of paper PMC10849652:
This is one part of the list.

By UniProt entry, the sequences of proteins in these tests, tags left out. Where a name states a change or a piece, a line headed by the entry shows the natural chain unless it says otherwise.
UniProt Q14498: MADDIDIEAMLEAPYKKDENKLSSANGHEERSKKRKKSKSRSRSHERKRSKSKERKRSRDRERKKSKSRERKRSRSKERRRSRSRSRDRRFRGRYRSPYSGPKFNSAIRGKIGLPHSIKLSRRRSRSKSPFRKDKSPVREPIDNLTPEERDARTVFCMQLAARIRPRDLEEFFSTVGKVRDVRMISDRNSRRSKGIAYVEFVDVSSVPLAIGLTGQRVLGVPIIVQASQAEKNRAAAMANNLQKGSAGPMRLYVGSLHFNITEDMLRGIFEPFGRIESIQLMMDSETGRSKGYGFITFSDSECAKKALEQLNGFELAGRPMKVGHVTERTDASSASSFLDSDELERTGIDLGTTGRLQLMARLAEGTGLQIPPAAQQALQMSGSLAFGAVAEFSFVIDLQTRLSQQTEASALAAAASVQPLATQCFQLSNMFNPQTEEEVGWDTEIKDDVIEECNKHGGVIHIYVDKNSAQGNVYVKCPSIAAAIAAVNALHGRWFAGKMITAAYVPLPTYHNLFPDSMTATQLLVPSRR
UniProt O43665: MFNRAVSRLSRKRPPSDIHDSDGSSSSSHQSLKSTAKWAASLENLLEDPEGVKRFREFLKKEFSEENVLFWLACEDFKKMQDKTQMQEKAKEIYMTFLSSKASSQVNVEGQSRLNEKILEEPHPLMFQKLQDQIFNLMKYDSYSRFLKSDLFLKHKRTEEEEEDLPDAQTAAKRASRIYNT
UniProt Q6NUQ1: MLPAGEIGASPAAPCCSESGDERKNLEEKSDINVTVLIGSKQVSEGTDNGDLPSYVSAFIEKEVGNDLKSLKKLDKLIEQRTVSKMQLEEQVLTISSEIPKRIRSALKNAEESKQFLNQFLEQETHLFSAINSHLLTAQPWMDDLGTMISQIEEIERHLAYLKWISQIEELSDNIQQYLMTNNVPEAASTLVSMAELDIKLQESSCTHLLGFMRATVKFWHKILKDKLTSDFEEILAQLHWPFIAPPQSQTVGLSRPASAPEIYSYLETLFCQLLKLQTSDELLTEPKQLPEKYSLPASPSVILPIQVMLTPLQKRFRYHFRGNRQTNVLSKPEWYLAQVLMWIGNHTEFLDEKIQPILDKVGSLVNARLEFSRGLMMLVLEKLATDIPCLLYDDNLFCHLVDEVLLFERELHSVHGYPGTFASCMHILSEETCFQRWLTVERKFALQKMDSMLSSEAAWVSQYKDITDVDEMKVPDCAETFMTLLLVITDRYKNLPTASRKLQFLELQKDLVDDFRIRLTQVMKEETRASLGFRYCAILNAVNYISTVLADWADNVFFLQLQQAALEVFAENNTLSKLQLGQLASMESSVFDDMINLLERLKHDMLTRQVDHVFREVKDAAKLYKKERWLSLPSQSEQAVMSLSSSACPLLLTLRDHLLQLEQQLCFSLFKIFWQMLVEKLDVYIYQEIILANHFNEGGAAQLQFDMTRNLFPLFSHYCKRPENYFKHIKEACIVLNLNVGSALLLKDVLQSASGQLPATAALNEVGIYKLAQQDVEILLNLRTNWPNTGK
UniProt Q5VTB9: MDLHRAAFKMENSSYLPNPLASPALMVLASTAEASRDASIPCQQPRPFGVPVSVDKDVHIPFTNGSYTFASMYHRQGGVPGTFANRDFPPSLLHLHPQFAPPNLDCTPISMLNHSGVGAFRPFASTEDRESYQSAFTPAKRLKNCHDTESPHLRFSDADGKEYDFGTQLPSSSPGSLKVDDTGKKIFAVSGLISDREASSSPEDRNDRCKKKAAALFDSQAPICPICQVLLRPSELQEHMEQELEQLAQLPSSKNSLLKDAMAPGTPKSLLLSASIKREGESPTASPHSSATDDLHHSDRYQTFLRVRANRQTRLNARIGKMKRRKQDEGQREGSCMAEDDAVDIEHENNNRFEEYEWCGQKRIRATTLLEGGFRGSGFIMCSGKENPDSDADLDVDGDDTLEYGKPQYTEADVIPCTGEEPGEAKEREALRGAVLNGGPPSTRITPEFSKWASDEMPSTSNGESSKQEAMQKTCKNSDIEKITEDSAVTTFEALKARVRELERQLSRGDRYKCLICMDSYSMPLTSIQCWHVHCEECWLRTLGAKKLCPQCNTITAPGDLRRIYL
UniProt Q04864: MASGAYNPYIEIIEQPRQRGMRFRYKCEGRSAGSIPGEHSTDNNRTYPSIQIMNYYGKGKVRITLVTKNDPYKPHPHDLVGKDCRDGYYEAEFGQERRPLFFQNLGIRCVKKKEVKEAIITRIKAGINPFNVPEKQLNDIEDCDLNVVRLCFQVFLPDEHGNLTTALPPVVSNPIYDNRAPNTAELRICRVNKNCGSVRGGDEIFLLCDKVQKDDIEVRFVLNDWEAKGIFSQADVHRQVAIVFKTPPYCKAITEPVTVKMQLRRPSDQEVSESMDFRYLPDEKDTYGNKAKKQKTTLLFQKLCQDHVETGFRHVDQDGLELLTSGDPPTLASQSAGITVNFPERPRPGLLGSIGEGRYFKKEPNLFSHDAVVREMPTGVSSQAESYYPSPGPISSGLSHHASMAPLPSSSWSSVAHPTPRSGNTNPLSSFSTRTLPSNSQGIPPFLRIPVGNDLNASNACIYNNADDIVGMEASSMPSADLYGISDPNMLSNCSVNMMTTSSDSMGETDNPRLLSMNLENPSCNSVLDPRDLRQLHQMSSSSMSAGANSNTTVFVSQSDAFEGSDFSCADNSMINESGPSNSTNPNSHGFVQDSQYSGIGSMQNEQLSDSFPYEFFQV
UniProt Q9BWF3: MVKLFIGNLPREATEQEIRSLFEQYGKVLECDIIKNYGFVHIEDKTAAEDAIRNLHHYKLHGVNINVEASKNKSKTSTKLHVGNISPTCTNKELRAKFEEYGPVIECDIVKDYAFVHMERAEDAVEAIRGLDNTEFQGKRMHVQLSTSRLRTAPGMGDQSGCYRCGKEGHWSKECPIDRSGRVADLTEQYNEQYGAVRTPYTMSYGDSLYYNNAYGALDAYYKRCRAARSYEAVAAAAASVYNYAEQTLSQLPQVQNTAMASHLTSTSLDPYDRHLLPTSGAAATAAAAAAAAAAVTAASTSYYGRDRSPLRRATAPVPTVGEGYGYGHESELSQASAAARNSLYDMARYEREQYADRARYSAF
UniProt Q96E14: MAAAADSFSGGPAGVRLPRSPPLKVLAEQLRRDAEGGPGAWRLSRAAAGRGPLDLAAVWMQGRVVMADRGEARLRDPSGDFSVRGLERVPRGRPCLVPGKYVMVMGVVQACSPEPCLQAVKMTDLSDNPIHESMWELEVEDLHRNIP
UniProt P78332: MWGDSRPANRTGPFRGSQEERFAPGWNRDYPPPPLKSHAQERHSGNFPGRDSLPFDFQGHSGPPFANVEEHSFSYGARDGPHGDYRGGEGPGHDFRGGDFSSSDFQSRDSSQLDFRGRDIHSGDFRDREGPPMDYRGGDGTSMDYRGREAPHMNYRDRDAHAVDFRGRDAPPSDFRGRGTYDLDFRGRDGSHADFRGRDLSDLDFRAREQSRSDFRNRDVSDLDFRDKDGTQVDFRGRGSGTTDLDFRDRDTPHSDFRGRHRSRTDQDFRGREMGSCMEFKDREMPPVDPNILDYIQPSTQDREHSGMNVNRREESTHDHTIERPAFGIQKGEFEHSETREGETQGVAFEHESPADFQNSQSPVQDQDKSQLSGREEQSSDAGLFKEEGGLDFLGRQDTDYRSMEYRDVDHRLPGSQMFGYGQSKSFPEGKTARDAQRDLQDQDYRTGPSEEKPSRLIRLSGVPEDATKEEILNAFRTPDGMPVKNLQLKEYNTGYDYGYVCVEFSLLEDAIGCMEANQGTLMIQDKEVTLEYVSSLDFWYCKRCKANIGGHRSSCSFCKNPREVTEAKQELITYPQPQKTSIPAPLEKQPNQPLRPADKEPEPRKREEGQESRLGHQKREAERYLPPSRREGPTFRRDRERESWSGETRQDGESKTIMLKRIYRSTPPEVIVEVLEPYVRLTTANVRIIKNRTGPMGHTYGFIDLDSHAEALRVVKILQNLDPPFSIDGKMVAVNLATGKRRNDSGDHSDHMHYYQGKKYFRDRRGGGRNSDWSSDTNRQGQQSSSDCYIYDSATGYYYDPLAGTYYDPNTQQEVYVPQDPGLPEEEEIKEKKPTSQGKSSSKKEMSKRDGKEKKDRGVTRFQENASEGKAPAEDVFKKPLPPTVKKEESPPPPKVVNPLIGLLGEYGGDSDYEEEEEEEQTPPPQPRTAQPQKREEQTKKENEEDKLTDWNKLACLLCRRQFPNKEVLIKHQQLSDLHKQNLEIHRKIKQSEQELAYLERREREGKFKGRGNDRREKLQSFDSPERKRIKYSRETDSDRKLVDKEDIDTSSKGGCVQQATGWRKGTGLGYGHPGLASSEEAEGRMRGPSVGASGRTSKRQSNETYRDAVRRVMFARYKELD
UniProt P18754: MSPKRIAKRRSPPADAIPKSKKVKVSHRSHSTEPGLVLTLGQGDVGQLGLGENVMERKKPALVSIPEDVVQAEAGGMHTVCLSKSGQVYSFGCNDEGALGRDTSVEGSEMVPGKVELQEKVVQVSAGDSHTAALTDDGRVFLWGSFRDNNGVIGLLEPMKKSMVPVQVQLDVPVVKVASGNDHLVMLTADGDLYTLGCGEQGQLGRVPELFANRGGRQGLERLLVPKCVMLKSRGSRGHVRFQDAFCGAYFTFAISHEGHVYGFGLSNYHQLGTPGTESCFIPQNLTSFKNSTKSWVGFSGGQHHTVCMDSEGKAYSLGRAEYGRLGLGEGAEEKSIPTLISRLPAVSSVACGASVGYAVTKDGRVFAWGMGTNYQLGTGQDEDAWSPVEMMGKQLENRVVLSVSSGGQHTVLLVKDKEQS
UniProt P61586, whole entry, looked up: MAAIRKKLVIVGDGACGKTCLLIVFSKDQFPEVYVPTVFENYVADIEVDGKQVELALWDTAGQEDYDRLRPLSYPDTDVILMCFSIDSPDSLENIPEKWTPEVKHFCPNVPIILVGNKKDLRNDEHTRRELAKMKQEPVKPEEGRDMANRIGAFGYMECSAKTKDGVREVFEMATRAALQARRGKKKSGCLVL
UniProt O00584, whole entry, looked up: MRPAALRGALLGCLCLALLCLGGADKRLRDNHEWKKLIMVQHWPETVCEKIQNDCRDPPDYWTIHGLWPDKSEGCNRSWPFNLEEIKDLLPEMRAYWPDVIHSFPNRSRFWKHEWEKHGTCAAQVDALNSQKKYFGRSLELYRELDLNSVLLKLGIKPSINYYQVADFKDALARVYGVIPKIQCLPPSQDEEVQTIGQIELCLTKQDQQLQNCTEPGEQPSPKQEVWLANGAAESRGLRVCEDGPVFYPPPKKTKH
UniProt Q9H1K0: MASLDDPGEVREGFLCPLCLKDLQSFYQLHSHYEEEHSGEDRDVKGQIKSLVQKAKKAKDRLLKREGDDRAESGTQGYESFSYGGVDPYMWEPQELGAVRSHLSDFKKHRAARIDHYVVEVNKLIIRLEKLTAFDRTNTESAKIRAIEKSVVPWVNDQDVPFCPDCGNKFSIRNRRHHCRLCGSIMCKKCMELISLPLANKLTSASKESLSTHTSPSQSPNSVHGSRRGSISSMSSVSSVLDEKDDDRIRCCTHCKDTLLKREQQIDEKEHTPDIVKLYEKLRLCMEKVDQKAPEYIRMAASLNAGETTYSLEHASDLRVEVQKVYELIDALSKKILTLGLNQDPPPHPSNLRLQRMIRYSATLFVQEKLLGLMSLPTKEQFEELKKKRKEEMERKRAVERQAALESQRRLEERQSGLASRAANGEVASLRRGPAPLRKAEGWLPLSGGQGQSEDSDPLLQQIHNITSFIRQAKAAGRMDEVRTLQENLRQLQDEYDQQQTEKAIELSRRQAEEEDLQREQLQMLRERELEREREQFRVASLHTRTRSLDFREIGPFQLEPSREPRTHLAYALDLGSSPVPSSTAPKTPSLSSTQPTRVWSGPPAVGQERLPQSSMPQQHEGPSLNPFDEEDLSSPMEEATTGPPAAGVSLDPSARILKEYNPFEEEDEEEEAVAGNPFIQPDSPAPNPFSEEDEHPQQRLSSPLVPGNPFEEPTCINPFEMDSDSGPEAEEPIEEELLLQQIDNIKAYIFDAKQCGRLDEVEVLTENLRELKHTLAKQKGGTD
UniProt Q9BQY4: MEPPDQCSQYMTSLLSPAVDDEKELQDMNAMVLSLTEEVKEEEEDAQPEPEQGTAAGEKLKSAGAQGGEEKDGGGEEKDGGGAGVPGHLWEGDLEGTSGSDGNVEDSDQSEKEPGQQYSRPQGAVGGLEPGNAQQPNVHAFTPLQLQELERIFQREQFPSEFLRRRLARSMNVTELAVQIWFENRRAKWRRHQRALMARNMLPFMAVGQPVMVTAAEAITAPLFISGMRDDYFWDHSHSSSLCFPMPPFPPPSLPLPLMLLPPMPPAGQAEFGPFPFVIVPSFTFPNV
UniProt Q92963, whole entry, looked up: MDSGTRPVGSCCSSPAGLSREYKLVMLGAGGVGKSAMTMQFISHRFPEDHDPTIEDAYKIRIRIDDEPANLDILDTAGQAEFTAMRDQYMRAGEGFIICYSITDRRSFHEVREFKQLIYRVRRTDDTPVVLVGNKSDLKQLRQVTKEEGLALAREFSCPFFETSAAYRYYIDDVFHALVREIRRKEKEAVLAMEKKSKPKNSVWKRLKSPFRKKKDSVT

Columns and labels:
Test in all cases: log2 fold change, soluble protein after heating vs DMSO (PISA); higher = thermal stabilisation; K562 cells, 10 uM, 30 min; active = over 0.2 and 3.5 SD of the protein, either way, in both replicates (recomputed)
saracatinib = compound: CN1CCN(CCOc2cc(OC3CCOCC3)c3c(Nc4c(Cl)ccc5c4OCO5)ncnc3c2)CC1 [saracatinib]
In short: (§1)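 Thermal stability values are relative to control samples and come from duplicates. They are expressed as log2 fold changes. For measurement, K562 cells (2×10^6 cells/mL) received 10 μM compound for 30 min, and aliquots were heated for 3 min over 48°C-58°C, pooled, and extracted at 4°C in PBS with 0.5% NP-40. Soluble protein, the supernatant after 21,000xg for 90 min, was quantified by TMTpro 16plex LC-MS/MS with equalised channel sums.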

sotrastaurin = compound: CN1CCN(c2nc(C3=C(c4c[nH]c5ccccc45)C(=O)NC3=O)c3ccccc3n2)CC1 [sotrastaurin]
In short: as §1

Tubastatin A = compound: CN1CCc2c(c3ccccc3n2Cc2ccc(C(=O)NO)cc2)C1 [Tubastatin A]
In short: as §1

[1] = compound: CNC(=O)C1=CC=CC=C1NC2=NC(=NC=C2Cl)NC3=C(C=C(C=C3)N4CCOCC4)OC
In short: as §1

defactinib = compound: CNC(=O)c1ccc(Nc2ncc(C(F)(F)F)c(NCc3nccnc3N(C)S(C)(=O)=O)n2)cc1 [defactinib]
In short: as §1

[2] = compound: CNc1nc(-c2ccc3c(N)n[nH]c3c2)cc(N2C[C@@H](C(=O)NC3CCCCC3)CC[C@H]2C)n1
In short: as §1

[3] = compound: COC(=O)[C@H](CCSC)NC(=O)C1=C(C=C(C=C1)NC[C@H](CS)N)C2=CC=CC=C2
In short: as §1

[4] = compound: COC1=CC=C(C=C1)CN2C=CC3=C2C=C(C=C3)C(=O)NO
In short: as §1

filanesib = compound: CON(C)C(=O)N1N=C(c2cc(F)ccc2F)S[C@@]1(CCCN)c1ccccc1 [filanesib]
In short: as §1

zotarolimus = compound: CO[C@H]1C[C@@H]2CC[C@@H](C)[C@@](O)(O2)C(=O)C(=O)N2CCCC[C@H]2C(=O)O[C@H]([C@H](C)C[C@@H]2CC[C@H](n3cnnn3)[C@H](OC)C2)CC(=O)[C@H](C)/C=C(\C)[C@@H](O)[C@@H](OC)C(=O)[C@H](C)C[C@H](C)/C=C/C=C/C=C/1C [zotarolimus]
In short: as §1

idasanutlin = compound: COc1cc(C(=O)O)ccc1NC(=O)[C@@H]1N[C@@H](CC(C)(C)C)[C@](C#N)(c2ccc(Cl)cc2F)[C@H]1c1cccc(Cl)c1F [idasanutlin]
In short: as §1

alisertib = compound: COc1cc(Nc2ncc3c(n2)-c2ccc(Cl)cc2C(c2c(F)cccc2OC)=NC3)ccc1C(=O)O [alisertib]
In short: as §1

[5] = compound: COc1cc2nc(-c3cc(F)ccc3O)nc(N[C@@H]3CNC[C@H]3C(C)(C)O)c2cc1OC
In short: as §1

gefitinib = compound: COc1cc2ncnc(Nc3ccc(F)c(Cl)c3)c2cc1OCCCN1CCOCC1 [gefitinib]
In short: as §1

[6] = compound: COc1cccc2cc(-c3nc([C@H]4CC[C@H](C(=O)O)CC4)n4ncnc(N)c34)[nH]c12
In short: as §1

lapatinib = compound: CS(=O)(=O)CCNCc1ccc(-c2ccc3ncnc(Nc4ccc(OCc5cccc(F)c5)c(Cl)c4)c3c2)o1 [lapatinib]
In short: as §1

pictilisib = compound: CS(=O)(=O)N1CCN(Cc2cc3nc(-c4cccc5[nH]ncc45)nc(N4CCOCC4)c3s2)CC1 [pictilisib]
In short: as §1

rucaparib = compound: CNCc1ccc(-c2[nH]c3cc(F)cc4c3c2CCNC4=O)cc1 [rucaparib]
In short: as §1

encorafenib = compound: COC(=O)N[C@@H](C)CNc1nccc(-c2cn(C(C)C)nc2-c2cc(Cl)cc(NS(C)(=O)=O)c2F)n1 [encorafenib]
In short: as §1

alvocidib = compound: CN1CC[C@H](c2c(O)cc(O)c3c(=O)cc(-c4ccccc4Cl)oc23)[C@H](O)C1 [alvocidib]
In short: as §1

Measured: log2 fold change

RNF167 (UniProt Q9H6Y7)
inactive: saracatinib -0.03 | sotrastaurin 0.064 | Tubastatin A -0.021 | [1] 0.035 | defactinib 0.059 | [2] 0.042 | [3] -0.006 | [4] -0.062 | filanesib -0.032 | zotarolimus -0.033 | idasanutlin 0.018 | alisertib -0.014 | [5] -0.084 | gefitinib -0.013 | [6] 0.016 | lapatinib 0.024 | pictilisib -0.029

RBM39 (UniProt Q14498)
inactive: saracatinib -0.027 | sotrastaurin -0.089 | Tubastatin A 0.026 | [1] -0.303 | defactinib -0.16 | rucaparib 0.072 | [2] -0.183 | encorafenib 0.08 | [3] 0.011 | [4] 0.117 | filanesib 0.129 | zotarolimus -0.006 | idasanutlin 0.262 | alisertib -0.058 | [5] -0.055 | gefitinib -0.019 | [6] 0.009 | lapatinib 0.026 | pictilisib -0.014

RGS10 (UniProt O43665)
inactive: saracatinib 0.033 | sotrastaurin -0.023 | Tubastatin A 0.049 | [1] 0.014 | defactinib -0.11 | rucaparib 0.038 | [2] 0 | encorafenib -0.001 | [3] -0.002 | [4] -0.023 | filanesib -0.081 | zotarolimus 0.115 | idasanutlin 0.086 | alisertib -0.053 | [5] 0.003 | gefitinib 0.056 | [6] -0.014 | lapatinib 0.029 | pictilisib -0.028

RINT1 (UniProt Q6NUQ1)
inactive: saracatinib -0.248 | alvocidib 0.109 | Tubastatin A 0.236 | [1] 0.09 | defactinib -0.059 | rucaparib 0.246 | [2] 0.176 | encorafenib 0.27 | [3] -0.098 | [4] 0.106 | zotarolimus 0.13 | idasanutlin 0.214 | alisertib 0.056 | [5] 0.134 | gefitinib 0.084 | [6] -0.354 | lapatinib -0.016 | pictilisib 0.121

RBM8A (UniProt Q9Y5S9)
inactive: saracatinib 0.011 | sotrastaurin -0.002 | Tubastatin A 0.045 | [1] -0.032 | defactinib 0.075 | rucaparib -0.043 | [2] -0.006 | encorafenib 0.025 | [3] 0.012 | [4] -0.061 | filanesib 0.028 | zotarolimus -0.018 | idasanutlin -0.01 | alisertib -0.024 | [5] 0.094 | gefitinib 0.038 | [6] -0.029 | lapatinib -0.028 | pictilisib -0.013

RNF220 (UniProt Q5VTB9)
inactive: saracatinib 0.012 | sotrastaurin 0.022 | Tubastatin A 0.066 | [1] -0.008 | defactinib -0.059 | rucaparib -0.043 | [2] -0.038 | encorafenib 0.031 | [3] 0.015 | [4] -0.004 | filanesib 0.108 | zotarolimus 0.062 | idasanutlin -0.006 | alisertib -0.062 | [5] 0.047 | gefitinib -0.032 | [6] 0.002 | lapatinib -0.006 | pictilisib 0.068

REL (UniProt Q04864)
inactive: saracatinib -0.028 | sotrastaurin -0.049 | Tubastatin A 0.008 | [1] 0.052 | defactinib -0.12 | rucaparib 0.089 | [2] -0.013 | encorafenib -0.046 | [3] -0.016 | [4] -0.006 | filanesib 0.051 | zotarolimus 0.004 | idasanutlin 0.033 | alisertib 0.068 | [5] 0.062 | gefitinib 0.148 | [6] -0.086 | lapatinib -0.031 | pictilisib -0.243

RBM4 (UniProt Q9BWF3)
inactive: saracatinib 0.024 | sotrastaurin -0.1 | Tubastatin A 0.017 | [1] -0.052 | defactinib -0.055 | rucaparib 0.157 | [2] -0.036 | encorafenib 0.063 | [3] 0.025 | [4] -0.071 | filanesib 0.065 | zotarolimus 0.035 | idasanutlin 0.051 | alisertib 0.038 | [5] -0.036 | gefitinib -0.04 | [6] -0.038 | lapatinib 0.024 | pictilisib 0.005

RMI2 (UniProt Q96E14)
inactive: saracatinib -0.119 | alvocidib -0.275 | Tubastatin A 0.032 | defactinib -0.019 | [2] 0.014 | [3] -0.139 | zotarolimus -0.028 | idasanutlin -0.092 | alisertib 0.088 | [5] 0.269 | [6] -0.088 | lapatinib 0.269

Taken from the entries so far (4 entries):
RINT1 (UniProt Q6NUQ1)
inactive: saracatinib -0.248 | alvocidib 0.109 | Tubastatin A 0.236 | [1] 0.09 | defactinib -0.059 | rucaparib 0.246 | [2] 0.176 | encorafenib 0.27 | [3] -0.098 | [4] 0.106 | zotarolimus 0.13 | idasanutlin 0.214 | alisertib 0.056 | [5] 0.134 | gefitinib 0.084 | [6] -0.354 | lapatinib -0.016 | pictilisib 0.121

RBM8A (UniProt Q9Y5S9)
inactive: saracatinib 0.011 | sotrastaurin -0.002 | Tubastatin A 0.045 | [1] -0.032 | defactinib 0.075 | rucaparib -0.043 | [2] -0.006 | encorafenib 0.025 | [3] 0.012 | [4] -0.061 | filanesib 0.028 | zotarolimus -0.018 | idasanutlin -0.01 | alisertib -0.024 | [5] 0.094 | gefitinib 0.038 | [6] -0.029 | lapatinib -0.028 | pictilisib -0.013

RNF220 (UniProt Q5VTB9)
inactive: saracatinib 0.012 | sotrastaurin 0.022 | Tubastatin A 0.066 | [1] -0.008 | defactinib -0.059 | rucaparib -0.043 | [2] -0.038 | encorafenib 0.031 | [3] 0.015 | [4] -0.004 | filanesib 0.108 | zotarolimus 0.062 | idasanutlin -0.006 | alisertib -0.062 | [5] 0.047 | gefitinib -0.032 | [6] 0.002 | lapatinib -0.006 | pictilisib 0.068

REL (UniProt Q04864)
inactive: saracatinib -0.028 | sotrastaurin -0.049 | Tubastatin A 0.008 | [1] 0.052 | defactinib -0.12 | rucaparib 0.089 | [2] -0.013 | encorafenib -0.046 | [3] -0.016 | [4] -0.006 | filanesib 0.051 | zotarolimus 0.004 | idasanutlin 0.033 | alisertib 0.068 | [5] 0.062 | gefitinib 0.148 | [6] -0.086 | lapatinib -0.031 | pictilisib -0.243

Next part

RICTOR isoform 3 (UniProt Q6R327)
active: sotrastaurin 0.708
inactive: saracatinib 0.087 | Tubastatin A 0.092 | [1] 0.114 | rucaparib -0.128 | [2] 0.154 | encorafenib 0.068 | filanesib -0.028 | idasanutlin -0.066 | [5] 0.003 | gefitinib 0.059 | lapatinib 0.186 | pictilisib -0.062

RDH10 (UniProt Q8IZV5)
inactive: saracatinib 0.005 | sotrastaurin 0.016 | Tubastatin A 0.04 | [1] 0.068 | defactinib -0.002 | rucaparib -0.034 | [2] 0.072 | encorafenib -0.011 | [3] -0.063 | [4] -0.007 | filanesib -0.023 | zotarolimus -0.03 | idasanutlin -0.14 | alisertib 0.013 | [5] 0.031 | gefitinib 0.083 | [6] 0.036 | lapatinib 0.037 | pictilisib 0.009

RNF168 (UniProt Q8IYW5)
inactive: saracatinib -0.191 | sotrastaurin 0.041 | Tubastatin A 0.134 | [1] -0.015 | [2] 0.327 | filanesib -0.136 | idasanutlin -0.153 | alisertib 0.202 | [5] 0.004 | gefitinib 0.052 | [6] 0.166 | lapatinib 0.021

RBM6 (UniProt P78332)
inactive: saracatinib -0.032 | sotrastaurin -0.077 | Tubastatin A -0.077 | [2] 0.247 | [4] 0.044 | filanesib -0.067 | zotarolimus 0.064 | idasanutlin 0.101 | alisertib -0.431 | [5] -0.02 | gefitinib -0.007 | [6] 0.005 | lapatinib 0.121 | pictilisib -0.044

RCC1 isoform 2 (UniProt P18754)
inactive: saracatinib -0.076 | sotrastaurin -0.049 | Tubastatin A 0.164 | [1] -0.083 | defactinib -0.224 | rucaparib -0.008 | [2] 0.146 | encorafenib 0.045 | [3] -0.07 | [4] 0.106 | filanesib -0.058 | zotarolimus 0.083 | idasanutlin 0 | alisertib 0.022 | [5] -0.038 | gefitinib 0.087 | [6] 0.021 | lapatinib 0 | pictilisib -0.005

RHOA (UniProt P61586)
inactive: saracatinib 0.079 | sotrastaurin -0.025 | Tubastatin A -0.025 | [1] -0.029 | defactinib 0 | rucaparib 0.074 | [2] 0.012 | encorafenib -0.126 | [3] 0.08 | filanesib -0.012 | zotarolimus -0.054 | idasanutlin 0.1 | alisertib -0.085 | [5] -0.118 | gefitinib 0.036 | [6] -0.012 | lapatinib 0.036 | pictilisib -0.178
active: [4] 0.284

RNASET2 (UniProt O00584)
inactive: saracatinib 0.009 | sotrastaurin 0.01 | Tubastatin A 0.003 | [1] -0.031 | defactinib -0.004 | rucaparib -0.163 | [2] -0.067 | encorafenib 0.015 | [3] -0.002 | [4] 0.012 | filanesib -0.155 | zotarolimus -0.013 | idasanutlin -0.021 | alisertib -0.046 | [5] -0.097 | gefitinib -0.081 | [6] 0.035 | lapatinib -0.028 | pictilisib 0.024

RCOR3 isoform 3 (UniProt Q9P2K3)
inactive: saracatinib -0.142 | sotrastaurin -0.011 | Tubastatin A 0.142 | [1] -0.019 | defactinib -0.073 | rucaparib 0.075 | [2] -0.044 | encorafenib 0.026 | [3] -0.062 | [4] -0.019 | filanesib 0.084 | zotarolimus -0.011 | idasanutlin -0.046 | alisertib -0.145 | [5] 0.14 | gefitinib 0.013 | [6] 0.011 | lapatinib 0 | pictilisib -0.106

RBSN (UniProt Q9H1K0)
inactive: saracatinib -0.011 | sotrastaurin -0.183 | Tubastatin A 0.182 | [1] 0.001 | defactinib -0.041 | rucaparib -0.012 | [2] 0.129 | encorafenib 0.041 | [3] 0.054 | [4] -0.041 | filanesib -0.551 | idasanutlin -0.069 | [5] -0.167 | gefitinib -0.013 | lapatinib -0.063 | pictilisib -0.022

RHOXF2 (UniProt Q9BQY4)
inactive: saracatinib 0.015 | sotrastaurin -0.002 | Tubastatin A 0.042 | [1] -0.021 | defactinib 0.008 | rucaparib 0.09 | [2] -0.074 | encorafenib -0.018 | [3] 0.066 | [4] 0.017 | filanesib 0.013 | zotarolimus -0.039 | idasanutlin 0.02 | alisertib -0.068 | [5] -0.001 | gefitinib -0.021 | [6] 0.056 | lapatinib -0.028 | pictilisib 0.088

RFX3 (UniProt P48380)
inactive: sotrastaurin -0.007 | [1] -0.054 | rucaparib -0.11 | encorafenib -0.032 | filanesib -0.041 | [5] -0.384 | lapatinib 0.002

RIT1 isoform 3 (UniProt Q92963)
inactive: [1] 0.081 | [4] -0.083 | pictilisib 0.085
